Binding data for two molecules are collected here from patent US20030232009A1.

No constants are given. Whether binding was seen depends on the method and setting. Some results given as binding are weak or reduced against the parent protein; the word gives no strength.

The target of assay [1] is chimeric CD45RB (full length human CD45RB with the macaque RB exon) transiently expressed in CHO cells (human; macaque) (UniProt P08575). In words: transiently transfected CHO cells.
For assay [2], the target named is T1, Human 46 mer peptide (RB exon of human CD45) (human).
T1 sequence (peptide): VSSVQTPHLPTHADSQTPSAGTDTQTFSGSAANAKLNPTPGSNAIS
The assay is described as follows: peptide binding.

For assay [3], the target named is Human CD45RB (format not stated) (human) (UniProt P08575). The assay is described as follows: screening of harvest 8.
The target in assay [4] is T1, Human 46 mer peptide (RB exon of human CD45) (human). The assay is described as follows: recombinant antibody on peptide.

B1: AB-CD45RB-XG2-648 (antibody, human IgG2, V domains shown)
VH: QVQLVESGGGLVKPGGSLRLSCAASGFTFNVYYMNWIRQAPGKGLEWVSYISTSSSAIYYADSVKGRFTISRDNAKNSLYLQMNSLRAEDTAVYYCARRTGSTTVFDYWGQGTLVTVSS
VL: EIVLTQSPATLSVSPGERATLSCRASQSINNNLAWYQQKPGQAPRLLIYGASTRATGIPAKFSGSGSGTEFTLTISSLQSENFAVYYCQQYNKWPLTFGGGTKVEIK
As to B1, the binding result in assay [1] is recorded as “binds”.

B2: AB-CD45RB-XG2-487 (antibody, human IgG2, V domains shown)
VH: QVQLVESGGGVVQPGRSLRVSCEASGFTFSNYGMHWVRQAPGKGLEWVAVIWYDGSKKFYADSVKGRFTISRDNSQNTLSLQMSSLRAEDTAVYYCARGGGDFDFWGQGTLVTVSS
VL: KIVMTQSPATLSVSPGERATLSCRASQSVSGNYLAWYQQRPGQAPRLLIYGASTRATGIPARFSGSGSGTEFTLTISSLQSEDFAVYYCQQYGKWPPLTFGGGTKVEIK
For B2, the binding entry in assay [2], in assay [3] and in assay [4] was “binds” each time.
